Data as given in PMC5386555.
No constants are given. Whether binding was seen depends on the method and setting. In cells and extracts the contact can be indirect. Binding can be weak; no strength is given.

Tests used:
[1] = biological target: receptor-interacting protein 1 (RIP1) (rat (endogenous in Sprague-Dawley rat brain tissue and primary neurons)); assay: co-IP; cultured primary rat neurons; IP with anti-RIP1 antibody, immunoblot for RIP3, MLKL, caspase-8; control, OxyHb, conditioned medium from OxyHb-stimulated microglia, with or without TNF-α inhibitor, Ad-RIP1 or Ad-RIP1-S166A
[2] = biological target: rat RIP1 overexpressed from recombinant adenovirus (Ad-RIP1) (rat); assay: as above
[3] = biological target: receptor-interacting protein 1 (RIP1) (rat (endogenous in Sprague-Dawley rat brain tissue and primary neurons)); assay: co-IP; rat brain tissue lysed in ice-cold RIPA buffer; IP with anti-RIP1 antibody (rabbit IgG as negative control) overnight at 4 °C, Protein A+G Sepharose beads; immunoblot for RIP3, MLKL, caspase-8; Sham and 24 h after ICH; animals also treated with Nec-1, z-VAD, RIP1 siRNA, Ad-GFP or Ad-RIP1
[4] = biological target: rat RIP1 overexpressed from recombinant adenovirus (Ad-RIP1) (rat); assay: as above

binding [1]	binding [2]	binding [3]	binding [4]	Binder
binds	binds	binds	binds	MLKL (mixed lineage kinase domain-like protein) (protein, UniProt D3ZKP6 1-462) MDKLGQIIKLGQLIYDQCEKMKYCKRQCRRLRNRVHGLLQPLQRLQAQEKKSLPSDITAALGRFEDVLKEARQQIEKFSQKSNIWKFATVGSDKILFHEVNEKLRDIWEELLLLLQVDQWKSDSEVSQPASWQQEDQQDAEEDGNENMKVILVKLQISMEEIKEALKQCSLKPMQEVPQDFQVKEIPKEDLGYPWTKLKTNKLSTIYRGEYYKSPVTIKVFNNPKAESVGIVRLTFNEEIKTMKKFDSPNILRIFGICIDQTVKPPEFSIVMEYCELGTLRELLDRDKDLTMSVRSLLVLRAARGLYRLHHSGTLHGNISSSSFLVAGGYQVKLAGFELSKTQTSISRATKSTKAERFSSTAYVSPERLQDPFCKYDTKAEIYSFGIVLWEIATGKIPFEGCDSEKIYELVAENKKQEPVGQDCPELLQEIINECRAHEPSNRPSADGRILSLPQMENTRQS
binds	binds	binds	binds	RIP3 (protein, UniProt Q9Z2P5 1-478) MSSVKLWLNGASSISLVGSEELENLGFVGKGGFGAVFRARHTAWNLDVAVKIVNSKKISREVKAMVNLRHENVLLLLGVTENLEWDYVYGPALVTGFMENGSLSGLLQPSCPRPWPLLCRLLEEVVLGMCYLHSLNPSLLHRDLKPSNVLLDPELHAKLADFGLSTFQGGSQSGSGSGSRDSGGTLAYLAPELLDNDGKASKASDVYSFGVLVWTVLAGREAEVVDKTSLIRGAVCNRQRRPPLTELPPDSPETPGLEGLKELMTHCWSSEPKDRPSFQDCESKTNNVYILVQDKVDAAVSKVKHYLSQYRSSDTKLSARESSQKGTEVDCPRETIVYEMLDRLHLEEPSGSVPERLTSLTERRGKEASFGHATPAGTSSDTLAGTPQIPHTLPSRGTTPRPAFTETPGPDPQRNQGDGRNSNPWYTWNAPNPMTGLQSIVLNNCSEVQIGQHNCMSVQPRTAFPKKEPAQFGRGRGW
